# Data: PubChem BioAssay AID493014 (National Center for Advancing Translational Sciences (NCATS), 2011)
# In all, about 340,000 compounds went through this assay and about 170 (0.05%) were called active. This list was built around the results that the source calls inconclusive (neither active nor inactive); the mix of calls is not that of the screen. Calls come from the whole dose curve; as a rule, active = well fitted inhibition curve with a large enough effect in the signal ratio, with a control signal flat (not every such curve was filed as active); inconclusive = small, poorly fitted or top-dose-only effect, or effect the other way, or a change in a side signal; inactive = flat fitted curve, though single readings scatter; the % refers to the signal ratio. Potencies beside an inconclusive call are fits to weak or partial responses and may not hold up.
# Test: qHTS Assay to Find Inhibitors of Chronic Active B-Cell Receptor Signaling;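 for activity change, negative = inhibition: plate controls were basal doxycycline-induced cells for no effect and cells given 10 µM MG132 for full effect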
# Details: ABC-DLBCL IkBa-CBG/CBR reporter, luminescence ratio (green luciferase fused to IkBa over red control in TMD8 lymphoma cells), 4 h; activity change, negative = inhibition: at 46.1 µM (top of the series)
# Procedure, shortened: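 TMD8 human ABC-DLBCL cells with doxycycline-inducible IκBα–green luciferase fusion and unfused red luciferase, in 0.5% FBS medium; compounds up to 46 uM, 4 h at 37C. Green/red luminescence ratio, filter-overlap corrected, fitted to concentration-response curves.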
# Potency is the fitted concentration of half-maximal effect.
Compound,"activity change, negative = inhibition",Potency
CCN(CC)CCN=Cc1c(O)n(C2CCCCCC2)c(=O)[nH]c1=O,inconclusive: 0.292%,–
CNS(=O)(=O)c1ccc(-c2ccc(C=C3C(=O)NC(=O)NC3=O)o2)cc1,–,"inconclusive: 35.5 µM [falling, single point]"
CCN(CC)c1ccc(CC2C(=O)N(C)C(=O)N(C)C2=O)cc1,inactive,–
Cc1cc(NC(=O)COC(=O)c2c(C)nn(Cc3ccccc3Cl)c2Cl)no1,inconclusive: 4.84%,–
Cc1ccc(OCC(=O)N2CCN(Cc3cccnc3)CC2)cc1,inactive,–
COc1ccc(S(=O)(=O)NC(CC(=O)N2CCC3(CC2)OCCO3)C(C)C)cc1 (stereo not drawn),inactive,–
O=C(Nc1cccc(OC(=O)N2CCCCC2)c1)N1CCCCC1,inconclusive: -5.11%,–
COc1ccc(O)c(-c2c(-c3ccc(Cl)cc3)n[nH]c2C)c1,inconclusive: -15.4%,–
CCOC(=O)c1sc(NC(=O)c2cccc(S(=O)(=O)N3CCN(C)CC3)c2)cc1C,–,"inconclusive: 20 µM [falling, single point]"
CCCCCn1c(=O)c(C(=O)NCc2ccncc2)c(O)c2ccccc21,inconclusive: -18%,–
CNC(=O)OCCc1n(C)cc[n+]1C,inconclusive: 0.368%,–
Cc1cc(O)c(CN2CCN(c3ccccc3)CC2)cc1C,inactive,–
Cc1nnc2n1-c1ccc(Cl)cc1C(c1ccccc1)=NC2,–,"inconclusive: 10 µM [falling, partial curve, poor fit]"
N#Cc1ccccc1OCC(=O)N1CCN(CC(=O)Nc2ccc(F)cc2)CC1,–,"inconclusive: 9.2 µM [falling, partial curve, poor fit]"
CN1CCC2(CC1)NC(=O)c1ccccc1N2,inactive,–
CCN(CC)c1ccccc1,inactive,–
O=c1ccc2cc3ccoc3c(O)c2o1,inconclusive: 2.45%,–
CCN(CC)C(=O)Oc1ccc(Br)cc1C(=O)Nc1ccc(F)c(Cl)c1,–,"inconclusive: 10 µM [falling, partial curve, poor fit]"
COc1ccccc1N1CCN(Cc2ccc(SC)cc2)CC1,inactive,–
CCOP(=S)(OCC)SCC(=O)NC(C(=O)O)C(C)C (stereo not drawn),inconclusive: 3.15%,–
COc1ccc(NC(=O)Nc2ccccc2C(N)=O)cc1,inconclusive: -23.2%,–
Cc1cc2sc3ccccc3c(=O)c2c(C)c1O,inconclusive: 4.2%,–
COc1ccc(CNCCc2c[nH]c3ccccc23)c(OC)c1OC,inactive,–
CC1CCN(C(=O)CSc2nc(C3CC3)nc3ccccc23)CC1,inconclusive: 8.08%,–
CCN(CC)c1ccc(N=Cc2c(O)n(-c3ccc(OC)cc3)c(=O)[nH]c2=O)cc1,inactive,–
COC(=O)C(O)(c1ccc(NC(=S)NC(=O)c2ccc(Cl)cc2Cl)cc1)C(F)(F)F (stereo not drawn),inconclusive: -5.07%,–

Compound,"activity change, negative = inhibition",Potency
O=c1oc2ccccc2c(O)c1[C@H]1c2ccc(O)cc2Oc2c1c(=O)oc1ccccc21,–,"inconclusive: 1.12 µM [falling, partial curve, poor fit]"
Cc1ccc(S(=O)(=O)NCCC(=O)Nc2ccc(Cl)cc2C(=O)c2ccccc2)cc1,inconclusive: -14.3%,–
Cc1ccc(/C=C2\C(=O)NC(=S)N(c3ccccc3F)C2=O)s1,–,"inconclusive: 10.3 µM [falling, partial curve]"
COC(=O)c1ccc(COc2ccc3c(C)c(C)c(=O)oc3c2)o1,inconclusive: 1.71%,–
COc1ccc(CN2CCN(Cc3ccccc3F)CC2)cc1,inactive,–
O=C(NCc1cccnc1)c1c[nH]c2cc3c(cc2c1=O)OCCO3,inconclusive: -2.67%,–
COC(=O)C1=C(c2ccc(OC)c(OC)c2)C[C@@H]2CC[C@H]1N2C(=O)NCCc1ccccc1,inconclusive: 10%,–
COc1ccc2c(c1OC)CN1CCc3cc4c(cc3C1C2)OCO4 (stereo not drawn),inactive,–
CC(C)OP(=O)(c1ccc(N(C)C)cc1)C(O)c1ccc(Br)cc1 (stereo not drawn),inconclusive: 6.8%,–
O=C1NC(=S)N(Cc2ccco2)C(=O)/C1=C\c1cccs1,inconclusive: -0.564%,–
CCOC(=O)C1=C(CCc2ccccc2)NC(=O)NC1c1ccc2ccccc2c1 (stereo not drawn),inconclusive: 14.3%,–
COc1ccc(-c2cc(=NCCC(=O)O)c3cc(C)ccc3o2)cc1,inconclusive: 17.2%,–
CCc1c(C)nc(N)nc1N1N=C1SCCOc1ccccc1,inconclusive: -0.101%,–
C[C@@H]1O[C@@H](O[C@H]2C[C@@H](O)[C@]3(CO)[C@@H]4C(CC[C@]3(O)C2)[C@@]2(O)CC[C@H](C3COC(=O)C3)[C@@]2(C)C[C@H]4O)[C@H](O)[C@H](O)[C@H]1O (stereo partly drawn),inconclusive: -14.1%,–
CN1/C(=C\C=C\C2=[N+](C)c3ccc4ccccc4c3C2(C)C)C(C)(C)c2ccccc21,–,"inconclusive: 10 µM [rising, partial curve, poor fit]"
O=C(O)CCC(=O)NCCC1=c2ccccc2=N/C1=C\c1c(O)n(Cc2ccc(F)cc2)c(=S)[nH]c1=O,inactive,–
NCCc1ccc(OCc2ccccc2)c(OCc2ccccc2)c1,inactive,–
CCn1c(=O)n(CC(=O)N2CCC3(CC2)OCCO3)c(=O)c2ccccc21,inactive,–
O=C(/C=C/c1ccccc1)NCCc1cnc[nH]1,–,"inconclusive: 35.5 µM [falling, single point]"
COc1ccc(C(=O)O/N=C(/C(N)=O)P(=O)(OC(C)C)OC(C)C)cc1,–,"inconclusive: 35.5 µM [rising, single point]"
CCN1CCN(Cc2cc(Br)cc(Br)c2O)CC1,inactive,–
COc1cccc(C(=O)C2CN(C)CC2c2ccc(Cl)cc2)c1 (stereo not drawn),inactive,–
CCCN1CC(C)C(OC(C)=O)(c2ccccc2)CC1C (stereo not drawn),inconclusive: 12.7%,–
O=c1c2ccccc2nc(/C=C/c2ccc([N+](=O)[O-])o2)n1-c1ccc(O)cc1,–,"inconclusive: 2.82 µM [cytotoxic, full curve, poor fit]"
COc1cc2c(cc1/C=C/[N+](=O)[O-])OCO2,–,"inconclusive: 5.62 µM [falling, single point]"
CCOC(=O)c1sc2nc(-c3ccco3)c3c(c2c1N)CC(C)(C)OC3,inconclusive: -21.8%,–

# Record cards (already shown). Order of values: activity change, negative = inhibition | Potency
# COc1cc2c(cc1/C=C/[N+](=O)[O-])OCO2 is listed as – | inconclusive: 5.62 µM [falling, single point]
# CNC(=O)OCCc1n(C)cc[n+]1C is listed as inconclusive: 0.368% | –
# O=c1oc2ccccc2c(O)c1[C@H]1c2ccc(O)cc2Oc2c1c(=O)oc1ccccc21 is listed as – | inconclusive: 1.12 µM [falling, partial curve, poor fit]
# CCOC(=O)c1sc2nc(-c3ccco3)c3c(c2c1N)CC(C)(C)OC3 is listed as inconclusive: -21.8% | –

# Random excerpt: 2 entries already listed
Compound,"activity change, negative = inhibition",Potency
COC(=O)C1=C(c2ccc(OC)c(OC)c2)C[C@@H]2CC[C@H]1N2C(=O)NCCc1ccccc1,inconclusive: 10%,–
COC(=O)c1ccc(COc2ccc3c(C)c(C)c(=O)oc3c2)o1,inconclusive: 1.71%,–

# Continued.

Compound,"activity change, negative = inhibition",Potency
COc1ccccc1OP(=O)(Nc1ccc(Br)cc1)Oc1ccccc1OC,inconclusive: -16.4%,–
COc1ccccc1N1C(=O)NC(=O)/C(=C/c2ccc([N+](=O)[O-])s2)C1=O,inactive,–
N#C[C@H](O[C@@H]1O[C@H](CO[C@@H]2O[C@H](CO)[C@@H](O)[C@H](O)[C@H]2O)[C@@H](O)[C@H](O)[C@H]1O)c1ccccc1,inactive,–
COc1ccc(NC(=O)CN2C(=O)CN=C(c3ccccc3)c3ccccc32)c(OC)c1,inconclusive: 17.5%,–
COC(=O)C1=C(c2ccc(Cl)c(C(F)(F)F)c2)C[C@@H]2CC[C@H]1N2C(=O)NCc1ccco1,inconclusive: 4.79%,–
Cc1cc(C(=O)C[N+]23CCN(CC2)CC3)c(C)n1-c1ccc(Br)cc1,inconclusive: -11%,–
O=C1C2CCCN2C(c2ccncc2)N1c1ccc(Cl)c(Cl)c1 (stereo not drawn),inconclusive: 2.06%,–
CCCNC(=O)c1c(N)n(Cc2ccco2)c2nc3ccccc3nc12,–,"inconclusive: 0.326 µM [rising, full curve, poor fit]"
CC(C)[C@@]1(NC(=O)[C@@H]2C=C3c4cccc5[nH]cc(c45)C[C@H]3N(C)C2)O[C@@]2(O)[C@@H]3CCCN3C(=O)[C@H](Cc3ccccc3)N2C1=O,inconclusive: 6.63%,–
C/C(=N\NC(=O)c1ccccc1)c1c(O)n(C2CCCCC2)c(=O)[nH]c1=O,–,"inconclusive: 17.8 µM [falling, partial curve]"
O=S(=O)(Cc1cc(N2CCOCC2)nc(-c2ccccn2)n1)c1ccccc1,–,"inconclusive: 17.8 µM [falling, single point]"
O=C(c1cc(F)ccc1F)C1CCCN(CCCc2ccccc2)C1 (stereo not drawn),inactive,–
O=C1/C(=C\c2ccccc2)C2OCC=C3CN4CCC56c7ccccc7N1C5C2C3CC46 (stereo not drawn),inactive,–
O=C(O)c1ccc2c(c1)C1C(Cl)C(Sc3ccccc3[N+](=O)[O-])CC1C(c1cccc([N+](=O)[O-])c1)N2 (stereo not drawn),inactive,–
O=c1[nH]c(=S)[nH]c(O)c1N=Nc1ccc(OC(F)F)cc1,–,"inconclusive: 35.5 µM [rising, single point]"
CC1(C)C(c2ccccc2)=NC(c2cccnc2)=[N+]1[O-],–,"inconclusive: 0.447 µM [falling, full curve, poor fit]"
CN1C(=O)C(Cc2ccc3c(c2)OCO3)C(=O)N(C)C1=O,–,"inconclusive: 3.66 µM [rising, partial curve, poor fit]"
CC1=Nc2cc(C(=O)N3CCC4(CC3)OCCO4)ccc2Sc2ccc(Cl)cc21,inconclusive: -0.2%,–
CCOc1ccccc1OCC(=O)Nc1ccc(Cl)cc1C(=O)c1ccccc1,inactive,–
O=c1oc2cccnc2n1CCS(=O)(=O)c1ccc(F)cc1,–,"inconclusive: 12.6 µM [falling, partial curve]"
O=C(c1ccco1)c1cn(Cc2ccccc2)c2ccccc12,–,"inconclusive: 20.6 µM [rising, single point]"
CN1C(=O)CN=C(c2ccccc2)c2cc(Cl)ccc21,–,"inconclusive: 5.62 µM [falling, full curve]"
Cc1cccnc1NC(=O)C1CCCN(S(=O)(=O)c2ccc3c(c2)oc(=O)n3C)C1 (stereo not drawn),inconclusive: 11.9%,–
COc1ccc(C(=O)C2CCCN(Cc3ccc(C)s3)C2)cc1OC (stereo not drawn),inconclusive: -43.9%,–
CC1=C(C(=O)Nc2ccccc2)S(=O)(=O)CCO1,–,"inconclusive: 11.2 µM [falling, partial curve]"
Cc1cc(C(=O)Nc2ccc3c(c2)OCCO3)nn1C(C)(C)C,inconclusive: 9.68%,–
